{"source": "PubChem BioAssay AID686943, Drosophila RNAi Screening Center | 2013", "purpose": "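Search across the genome for regulators of signalling from receptor tyrosine kinase to ERK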 (primary screen)", "cells": "Drosophila S2R+ haemocyte-like cells expressing YFP-tagged ERK (Rolled)", "reagents": "long dsRNA against Drosophila genes", "conditions": "insulin stimulation versus unstimulated cells; dose and duration not given", "measurement": "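Antibody staining for doubly phosphorylated ERK divided by ERK-YFP signal, as plate z-scores, in insulin-treated and untreated cells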", "scale": "replicate 1, z-score of dpERK with insulin: higher = more active ERK per ERK-YFP after insulin", "note": "The screen tested about 23,000 reagents; below is an unselected part of those that have a named target and a result. 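Extra replicates exist only for a retested subset of genes; insulin dose and duration not given; both raised and lowered dpERK matter.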 Not all columns of the deposit are shown. No sequences are given here. The record does not give: the amount of reagent, the time to read-out."}
{"target": "Antdh", "dsRNA": "DRSC20307", "replicate 1, z-score of dpERK with insulin": 0}
{"target": "CG10184", "dsRNA": "DRSC14204", "replicate 1, z-score of dpERK with insulin": -0.34}
{"target": "CG43187", "dsRNA": "DRSC05607", "replicate 1, z-score of dpERK with insulin": 0.76}
{"target": "Sar1", "dsRNA": "DRSC17049", "replicate 1, z-score of dpERK with insulin": 0.52}
{"target": "Sar1", "dsRNA": "DRSC22115", "replicate 1, z-score of dpERK with insulin": 0.36}
{"target": "CG13070", "dsRNA": "DRSC09953", "replicate 1, z-score of dpERK with insulin": -0.08}
{"target": "raskol", "dsRNA": "DRSC19202", "replicate 1, z-score of dpERK with insulin": -0.28}
{"target": "raskol", "dsRNA": "DRSC19731", "replicate 1, z-score of dpERK with insulin": 0.9}
{"target": "raskol", "dsRNA": "DRSC19964", "replicate 1, z-score of dpERK with insulin": 0.39}
{"target": "raskol", "dsRNA": "DRSC19967", "replicate 1, z-score of dpERK with insulin": -5.51}
{"target": "raskol", "dsRNA": "DRSC21788", "replicate 1, z-score of dpERK with insulin": 0.99}
{"target": "nopo", "dsRNA": "DRSC06918", "replicate 1, z-score of dpERK with insulin": -0.24}
{"target": "MTA1-like", "dsRNA": "DRSC12382", "replicate 1, z-score of dpERK with insulin": -2.03}
{"target": "MTA1-like", "dsRNA": "DRSC22022", "replicate 1, z-score of dpERK with insulin": 0.32}
{"target": "Mitofilin", "dsRNA": "DRSC16742", "replicate 1, z-score of dpERK with insulin": -1.56}
{"target": "Ptp4E", "dsRNA": "DRSC18701", "replicate 1, z-score of dpERK with insulin": -0.14}
{"target": "CG14142", "dsRNA": "DRSC10145", "replicate 1, z-score of dpERK with insulin": -0.78}
{"target": "CG7298", "dsRNA": "DRSC10802", "replicate 1, z-score of dpERK with insulin": -0.78}
{"target": "FucT6", "dsRNA": "DRSC19848", "replicate 1, z-score of dpERK with insulin": -0.67}
{"target": "ago", "dsRNA": "DRSC08463", "replicate 1, z-score of dpERK with insulin": 2.23}
{"target": "hzg", "dsRNA": "DRSC10549", "replicate 1, z-score of dpERK with insulin": -1.05}

Records listed so far whose target name starts with M or m (3):
{"target": "MTA1-like", "dsRNA": "DRSC12382", "replicate 1, z-score of dpERK with insulin": -2.03}
{"target": "MTA1-like", "dsRNA": "DRSC22022", "replicate 1, z-score of dpERK with insulin": 0.32}
{"target": "Mitofilin", "dsRNA": "DRSC16742", "replicate 1, z-score of dpERK with insulin": -1.56}
